Assay results taken from patent US20240024520A1, “AUTONOMOUS KNOB DOMAIN PEPTIDES” (UCB BIOPHARMA SRL, priority 2020, published 2024).
For at least one compound, name, drawing or mass did not settle the structure. Bridge positions count the residues as written; N and C are the ends. Ends that are not written are not given here.

Test: In vivo pharmacokinetics after intravenous bolus
Conditions: 10 mg/kg intravenous; male Sprague-Dawley rats
Experimental: Plasma pharmacokinetics was studied for each peptide in male Sprague-Dawley rats of a body weight between 324 and 425 g. Drug was administered intravenously via the tail vein. […] Blood samples were taken at 7 minutes, 15 minutes, 30 minutes, followed by 1, 2, 4, 8 and 24 hours. Blood was collected into Li Heparin tubes and spun to prepare plasma samples for bioanalysis. Bioanalytical data was analysed on an individual animal basis using Pharsight Phoenix 64 Build 8.1. Non-compartmental analysis was conducted and mean pharmacokinetic parameters for each drug calculated.

GCPPGYKSGVDCSPGSECKWGCYAVDGRRYGGYGADSGVGS-OH (disulfide 2-18, 12-22) [K57chemFE]
plasma clearance [C1p]: 10.6 mL/min/kg
t1/2: 17 min
